Reference: paper doi:10.1101/2024.05.08.593233
These are yes or no findings as the source states them, for the method shown. In cells and extracts the contact can be indirect. Some binding calls cover weakened binding; strength is not graded here. Tags and fused reporters may be left off the sequences shown.

Assays:
Assay in all cases: co-IP
[1] = biological target: T1, 3×FLAG-Rubicon (1–972) (human) (UniProt Q92622)
T1 sequence: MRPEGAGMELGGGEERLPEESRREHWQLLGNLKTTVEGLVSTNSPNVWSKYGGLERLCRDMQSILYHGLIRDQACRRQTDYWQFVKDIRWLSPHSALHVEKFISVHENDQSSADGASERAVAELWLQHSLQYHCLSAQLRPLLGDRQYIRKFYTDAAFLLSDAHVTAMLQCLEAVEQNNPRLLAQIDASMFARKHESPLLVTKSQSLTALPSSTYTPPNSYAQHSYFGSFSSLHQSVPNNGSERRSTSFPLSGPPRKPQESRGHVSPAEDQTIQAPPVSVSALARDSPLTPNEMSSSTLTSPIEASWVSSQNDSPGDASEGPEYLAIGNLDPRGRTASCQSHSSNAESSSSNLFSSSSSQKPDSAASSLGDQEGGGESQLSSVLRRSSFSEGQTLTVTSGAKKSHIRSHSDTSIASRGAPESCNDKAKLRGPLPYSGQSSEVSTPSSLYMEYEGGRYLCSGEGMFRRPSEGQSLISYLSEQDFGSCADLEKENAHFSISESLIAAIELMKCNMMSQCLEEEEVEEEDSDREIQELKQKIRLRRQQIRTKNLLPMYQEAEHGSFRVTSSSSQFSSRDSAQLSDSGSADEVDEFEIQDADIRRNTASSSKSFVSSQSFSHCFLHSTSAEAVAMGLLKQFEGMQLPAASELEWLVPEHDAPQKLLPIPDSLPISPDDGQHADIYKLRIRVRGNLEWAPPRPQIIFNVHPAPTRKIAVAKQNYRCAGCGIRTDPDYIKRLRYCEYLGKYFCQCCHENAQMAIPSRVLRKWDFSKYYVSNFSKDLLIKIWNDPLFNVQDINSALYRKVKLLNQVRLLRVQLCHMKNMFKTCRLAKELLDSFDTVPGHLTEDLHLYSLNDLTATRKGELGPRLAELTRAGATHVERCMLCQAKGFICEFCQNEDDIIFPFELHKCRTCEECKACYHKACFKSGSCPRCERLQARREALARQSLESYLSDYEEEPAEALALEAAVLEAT

[2] = biological target: T2, 3×FLAG-Rubicon (1–566, 626–972) (human) (UniProt Q92622)
T2 sequence: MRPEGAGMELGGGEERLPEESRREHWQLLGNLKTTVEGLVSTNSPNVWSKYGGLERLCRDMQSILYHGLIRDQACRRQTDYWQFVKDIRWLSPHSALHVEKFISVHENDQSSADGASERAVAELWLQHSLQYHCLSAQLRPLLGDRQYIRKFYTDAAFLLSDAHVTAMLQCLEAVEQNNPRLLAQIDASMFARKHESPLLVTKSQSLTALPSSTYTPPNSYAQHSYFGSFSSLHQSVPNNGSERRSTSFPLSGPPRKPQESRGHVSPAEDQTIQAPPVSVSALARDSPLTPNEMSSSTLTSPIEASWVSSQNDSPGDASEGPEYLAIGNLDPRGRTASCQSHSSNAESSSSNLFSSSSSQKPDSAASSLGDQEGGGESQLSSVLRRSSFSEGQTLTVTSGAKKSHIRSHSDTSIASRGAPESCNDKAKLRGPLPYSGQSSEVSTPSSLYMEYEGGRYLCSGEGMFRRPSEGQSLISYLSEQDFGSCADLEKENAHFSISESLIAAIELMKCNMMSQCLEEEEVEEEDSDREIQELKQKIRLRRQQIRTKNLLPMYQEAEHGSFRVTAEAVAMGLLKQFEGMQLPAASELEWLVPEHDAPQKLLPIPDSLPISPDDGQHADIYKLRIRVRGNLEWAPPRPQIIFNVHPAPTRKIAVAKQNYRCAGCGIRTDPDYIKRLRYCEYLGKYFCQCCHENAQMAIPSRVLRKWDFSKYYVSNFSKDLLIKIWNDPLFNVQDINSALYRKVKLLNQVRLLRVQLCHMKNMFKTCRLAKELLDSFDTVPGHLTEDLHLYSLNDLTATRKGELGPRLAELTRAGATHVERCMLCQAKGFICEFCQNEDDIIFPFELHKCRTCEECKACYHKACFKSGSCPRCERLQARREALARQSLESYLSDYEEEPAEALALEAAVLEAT

[3] = biological target: T3, 3×FLAG-Rubicon (1–203, 448–972) (human) (UniProt Q92622)
T3 sequence: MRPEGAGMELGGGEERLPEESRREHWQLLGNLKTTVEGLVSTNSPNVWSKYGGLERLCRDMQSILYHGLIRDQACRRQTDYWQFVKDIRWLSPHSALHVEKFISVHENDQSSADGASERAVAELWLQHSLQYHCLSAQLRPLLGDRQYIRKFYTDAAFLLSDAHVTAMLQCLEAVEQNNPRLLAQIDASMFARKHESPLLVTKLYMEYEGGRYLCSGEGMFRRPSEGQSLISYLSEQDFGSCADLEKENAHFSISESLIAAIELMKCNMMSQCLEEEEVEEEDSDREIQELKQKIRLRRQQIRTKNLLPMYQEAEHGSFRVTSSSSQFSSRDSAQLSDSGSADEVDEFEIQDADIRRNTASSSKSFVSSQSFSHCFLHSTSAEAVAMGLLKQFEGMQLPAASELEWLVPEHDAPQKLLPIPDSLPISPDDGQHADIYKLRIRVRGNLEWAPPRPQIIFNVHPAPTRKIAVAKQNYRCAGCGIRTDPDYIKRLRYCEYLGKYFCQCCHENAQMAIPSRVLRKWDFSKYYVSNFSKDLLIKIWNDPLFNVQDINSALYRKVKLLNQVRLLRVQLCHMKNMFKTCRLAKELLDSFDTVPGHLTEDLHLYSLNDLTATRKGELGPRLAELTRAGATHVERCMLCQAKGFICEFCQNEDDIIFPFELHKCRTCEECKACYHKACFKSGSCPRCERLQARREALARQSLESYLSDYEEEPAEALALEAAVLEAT

Measured: binding

B1: endogenous WIPI2 (HEK293T) (protein, UniProt Q9Y4P8 1-454)
chain: MNLASQSGEAGAGQLLFANFNQDNTEVKGASRAAGLGRRAVVWSLAVGSKSGYKFFSLSSVDKLEQIYECTDTEDVCIVERLFSSSLVAIVSLKAPRKLKVCHFKKGTEICNYSYSNTILAVKLNRQRLIVCLEESLYIHNIRDMKVLHTIRETPPNPAGLCALSINNDNCYLAYPGSATIGEVQVFDTINLRAANMIPAHDSPLAALAFDASGTKLATASEKGTVIRVFSIPEGQKLFEFRRGVKRCVSICSLAFSMDGMFLSASSNTETVHIFKLETVKEKPPEEPTTWTGYFGKVLMASTSYLPSQVTEMFNQGRAFATVRLPFCGHKNICSLATIQKIPRLLVGAADGYLYMYNLDPQEGGECALMKQHRLDGSLETTNEILDSASHDCPLVTQTYGAAAGKGTYVPSSPTRLAYTDDLGAVGGACLEDEASALRLDEDSEHPPMILRTD
binds: [1] | [2] | [3]

B2: HA-WIPI2d (protein, UniProt Q9Y4P8-2 1-425)
chain: MNLASQSGEAGAGQLLFANFNQDNTSLAVGSKSGYKFFSLSSVDKLEQIYECTDTEDVCIVERLFSSSLVAIVSLKAPRKLKVCHFKKGTEICNYSYSNTILAVKLNRQRLIVCLEESLYIHNIRDMKVLHTIRETPPNPAGLCALSINNDNCYLAYPGSATIGEVQVFDTINLRAANMIPAHDSPLAALAFDASGTKLATASEKGTVIRVFSIPEGQKLFEFRRGVKRCVSICSLAFSMDGMFLSASSNTETVHIFKLETVKEKPPEEPTTWTGYFGKVLMASTSYLPSQVTEMFNQGRAFATVRLPFCGHKNICSLATIQKIPRLLVGAADGYLYMYNLDPQEGGECALMKQHRLDGSLETTNEILDSASHDCPLVTQTYGAAAGKAYTDDLGAVGGACLEDEASALRLDEDSEHPPMILRTD
binds: [1] | [2] | [3]
